In publication PMC5727187:
No constants are given. Whether binding was seen depends on the method and setting. Binding seen in cells or lysates may run through a third protein. Some entries that bind do so weakly or less than the wild type. Where a sequence is shown, tags or fusion partners need not be part of it.

Target: T1, BcsA^HA-FLAG (recombinant, BL21) (E. coli 1094) (UniProt P37653)
T1 sequence: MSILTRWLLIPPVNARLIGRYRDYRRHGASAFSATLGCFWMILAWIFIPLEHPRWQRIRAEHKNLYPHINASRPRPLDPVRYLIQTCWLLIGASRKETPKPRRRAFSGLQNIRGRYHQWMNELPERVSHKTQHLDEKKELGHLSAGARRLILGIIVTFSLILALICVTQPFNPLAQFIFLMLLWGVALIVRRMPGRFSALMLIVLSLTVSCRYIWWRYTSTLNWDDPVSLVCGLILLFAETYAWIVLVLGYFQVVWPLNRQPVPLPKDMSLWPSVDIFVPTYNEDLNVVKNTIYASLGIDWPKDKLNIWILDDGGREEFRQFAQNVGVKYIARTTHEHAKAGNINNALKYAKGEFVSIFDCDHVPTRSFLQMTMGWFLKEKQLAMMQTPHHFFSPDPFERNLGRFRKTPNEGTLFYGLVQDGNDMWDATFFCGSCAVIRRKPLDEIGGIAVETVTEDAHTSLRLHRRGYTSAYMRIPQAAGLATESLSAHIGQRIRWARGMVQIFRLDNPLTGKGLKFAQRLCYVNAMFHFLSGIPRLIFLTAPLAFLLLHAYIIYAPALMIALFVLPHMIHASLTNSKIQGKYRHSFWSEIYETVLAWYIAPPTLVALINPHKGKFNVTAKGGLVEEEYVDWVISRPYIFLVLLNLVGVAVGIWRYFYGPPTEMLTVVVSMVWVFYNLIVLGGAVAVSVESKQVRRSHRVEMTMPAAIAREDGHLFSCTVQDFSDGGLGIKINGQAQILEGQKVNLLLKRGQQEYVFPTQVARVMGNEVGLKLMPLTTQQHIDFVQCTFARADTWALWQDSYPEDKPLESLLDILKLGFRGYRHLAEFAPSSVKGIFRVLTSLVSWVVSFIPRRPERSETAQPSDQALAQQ
Assay: co-IP; Anti-FLAG purification and glycerol gradient of the inner membrane subcomplex expressed in BL21 (DE3) from bcs^HisRQA^HA-FLAGB-pCDF-Duet alone (no bcsEFG); SDS-PAGE and western blot

B1: BcsB (recombinant, BL21) (protein, UniProt P37652 26-779)
chain: TPATQPLINAEPAVAAQTEQNPQVGQVMPGVQGADAPVVAQNGPSRDVKLTFAQIAPPPGSMVLRGINPNGSIEFGMRSDEVVTKAMLNLEYTPSPSLLPVQSQLKVYLNDELMGVLPVTKEQLGKKTLAQMPINPLFISDFNRVRLEFVGHYQDVCEKPASTTLWLDVGRSSGLDLTYQTLNVKNDLSHFPVPFFDPSDNRTNTLPMVFAGAPDVGLQQASAIVASWFGSRSGWRGQNFPVLYNQLPDRNAIVFATNDKRPDFLRDHPAVKAPVIEMINHPQNPYVKLLVVFGRDDKDLLQAAKGIAQGNILFRGESVVVNEVKPLLPRKPYDAPNWVRTDRPVTFGELKTYEEQLQSSGLEPAAINVSLNLPPDLYLMRSTGIDMDINYRYTMPPVKDSSRMDISLNNQFLQSFNLSSKQEANRLLLRIPVLQGLLDGKTDVSIPALKLGATNQLRFDFEYMNPMPGGSVDNCITFQPVQNHVVIGDDSTIDFSKYYHFIPMPDLRAFANAGFPFSRMADLSQTITVMPKAPNEAQMETLLNTVGFIGAQTGFPAINLTVTDDGSTIQGKDADIMIIGGIPDKLKDDKQIDLLVQATESWVKTPMRQTPFPGIVPDESDRAAETRSTLTSSGAMAAVIGFQSPYNDQRSVIALLADSPRGYEMLNDAVNDSGKRATMFGSVAVIRESGINSLRVGDVYYVGHLPWFERVWYALANHPILLAVLAAISVILLAWVLWRLLRIISRRRLNPDNE
binding: binds
